The source of these data is paper PMC3963859.

Chains of the proteins cited; added tags and fusions are not shown. Lines headed by an entry give the natural chain unless they say otherwise; changes in a name come on top.
UniProt A0R5R5: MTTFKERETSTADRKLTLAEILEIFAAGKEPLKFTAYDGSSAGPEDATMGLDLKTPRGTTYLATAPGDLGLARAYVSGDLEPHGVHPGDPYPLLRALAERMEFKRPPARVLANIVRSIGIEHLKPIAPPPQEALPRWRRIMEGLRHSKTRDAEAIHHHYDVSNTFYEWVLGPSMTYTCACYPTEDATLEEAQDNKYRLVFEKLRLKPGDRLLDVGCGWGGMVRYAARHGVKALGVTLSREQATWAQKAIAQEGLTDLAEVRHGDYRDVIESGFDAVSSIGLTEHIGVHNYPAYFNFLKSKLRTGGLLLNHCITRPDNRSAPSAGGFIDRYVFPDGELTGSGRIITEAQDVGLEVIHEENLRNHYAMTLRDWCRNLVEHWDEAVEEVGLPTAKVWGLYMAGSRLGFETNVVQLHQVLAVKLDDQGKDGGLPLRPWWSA
UniProt A0R037: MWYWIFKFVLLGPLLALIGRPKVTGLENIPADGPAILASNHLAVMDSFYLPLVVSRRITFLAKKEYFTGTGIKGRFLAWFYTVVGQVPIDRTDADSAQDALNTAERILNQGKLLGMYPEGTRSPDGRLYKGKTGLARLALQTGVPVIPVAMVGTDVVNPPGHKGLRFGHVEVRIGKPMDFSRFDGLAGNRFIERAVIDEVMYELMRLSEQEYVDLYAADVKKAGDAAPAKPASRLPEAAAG
UniProt A0QSH0: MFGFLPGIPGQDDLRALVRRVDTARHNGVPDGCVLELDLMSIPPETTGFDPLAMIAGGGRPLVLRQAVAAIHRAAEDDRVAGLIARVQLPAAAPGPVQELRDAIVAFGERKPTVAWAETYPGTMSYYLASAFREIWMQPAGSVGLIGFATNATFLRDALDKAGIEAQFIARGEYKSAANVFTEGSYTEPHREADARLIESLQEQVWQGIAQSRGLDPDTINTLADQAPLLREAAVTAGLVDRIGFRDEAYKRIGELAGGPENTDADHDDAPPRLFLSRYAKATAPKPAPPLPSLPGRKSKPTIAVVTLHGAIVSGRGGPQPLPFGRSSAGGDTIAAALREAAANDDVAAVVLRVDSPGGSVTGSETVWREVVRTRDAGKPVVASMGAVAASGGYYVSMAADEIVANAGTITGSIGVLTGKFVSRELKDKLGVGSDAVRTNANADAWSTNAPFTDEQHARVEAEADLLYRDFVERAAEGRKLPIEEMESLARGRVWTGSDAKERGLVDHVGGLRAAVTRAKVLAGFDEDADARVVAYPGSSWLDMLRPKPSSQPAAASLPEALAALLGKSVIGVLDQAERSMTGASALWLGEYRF

No constants are given. Whether binding was seen depends on the method and setting. In cells and extracts the contact can be indirect. Here binding means that the protein was enriched with, or labelled near, the bait; the list need not be complete. Tags and fused reporters may be left off the sequences shown.

Assay in all cases: affinity purification with mass spectrom
Assay [1] addresses T1, ribonucleoside-diphosphate reductase, beta subunit (MSMEG_0358), HA-tagged (M. smegmatis) (UniProt A0QPD3).
T1 sequence: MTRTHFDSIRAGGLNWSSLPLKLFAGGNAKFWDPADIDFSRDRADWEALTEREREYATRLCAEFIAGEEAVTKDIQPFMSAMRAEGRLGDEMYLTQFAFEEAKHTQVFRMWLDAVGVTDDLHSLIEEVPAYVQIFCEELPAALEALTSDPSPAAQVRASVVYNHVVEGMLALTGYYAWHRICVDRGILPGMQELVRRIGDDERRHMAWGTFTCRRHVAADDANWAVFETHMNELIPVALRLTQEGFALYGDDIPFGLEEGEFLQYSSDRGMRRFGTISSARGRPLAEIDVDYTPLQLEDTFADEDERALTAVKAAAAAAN

Assay [2] concerns the target T2, ribonucleoside-diphosphate reductase, beta subunit (MSMEG_0358), protein A-tagged (M. smegmatis) (UniProt A0QPD3).
T2 sequence: T1 sequence

The target in assay [3] is T3, ribonucleoside-diphosphate reductase, beta subunit (MSMEG_0358), FLAG-tagged (M. smegmatis) (UniProt A0QPD3).
T3 sequence: T1 sequence

The target of assay [4] is T4, MSMEG_3085, phosphoglycerate kinase (Pgk), tagged bait (tag not told for this result) (M. smegmatis) (UniProt A0QWW3).
T4 sequence: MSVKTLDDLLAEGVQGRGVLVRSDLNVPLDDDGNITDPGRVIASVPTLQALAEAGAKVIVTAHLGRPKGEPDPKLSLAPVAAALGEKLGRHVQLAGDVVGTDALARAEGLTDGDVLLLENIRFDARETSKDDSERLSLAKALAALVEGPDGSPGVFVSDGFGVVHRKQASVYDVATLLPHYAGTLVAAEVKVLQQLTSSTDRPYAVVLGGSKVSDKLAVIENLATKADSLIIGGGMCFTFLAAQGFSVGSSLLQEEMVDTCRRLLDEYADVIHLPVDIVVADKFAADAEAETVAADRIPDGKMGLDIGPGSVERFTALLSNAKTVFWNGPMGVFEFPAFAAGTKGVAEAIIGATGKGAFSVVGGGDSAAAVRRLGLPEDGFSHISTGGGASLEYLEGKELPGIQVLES

Take “MSMEG_6284, a cyclopropane-fatty-acyl-phospholipid synthase (from UniProt A0R5R5) (enzyme)”: the binding entry in assay [1], in assay [2] and in assay [3] was “binds” in each case.

In the case of “MSMEG_4248, a 1-acylglycerol-3-phosphate O-acyltransferase (from UniProt A0R037) (enzyme)”, the binding entry in assay [4] was “binds”.

For “MSMEG_1476, a signal peptide peptidase (from UniProt A0QSH0)”, the binding entry in assay [1], in assay [2] and in assay [3] was “binds” in each case.
